Laboratory results reported in publication PMC5024446.
These are yes or no findings as the source states them, for the method shown. In cells and extracts the contact can be indirect. Some results given as binding are weak or reduced against the parent protein; the word gives no strength.

Chains of the proteins cited; added tags and fusions are not shown. Lines headed by an entry give the natural chain unless they say otherwise; changes in a name come on top. A line that says so, or that is headed by a name, gives the form on record, which may keep a tag or linker. Residues count along the entry.
tetherin deletion mutant delGPI (1-161 aa of human tetherin) (Q10589, residues 1-161): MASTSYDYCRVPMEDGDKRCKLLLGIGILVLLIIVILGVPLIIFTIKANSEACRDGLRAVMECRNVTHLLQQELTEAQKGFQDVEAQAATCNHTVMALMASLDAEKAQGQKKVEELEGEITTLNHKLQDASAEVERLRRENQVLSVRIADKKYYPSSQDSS
tetherin deletion mutant delCC (human tetherin with the deletion of 100-154 aa) (Q10589, form named): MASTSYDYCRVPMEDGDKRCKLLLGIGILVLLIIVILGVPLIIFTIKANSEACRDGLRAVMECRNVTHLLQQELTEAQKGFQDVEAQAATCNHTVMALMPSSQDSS
UniProt Q69467, residues 26-393: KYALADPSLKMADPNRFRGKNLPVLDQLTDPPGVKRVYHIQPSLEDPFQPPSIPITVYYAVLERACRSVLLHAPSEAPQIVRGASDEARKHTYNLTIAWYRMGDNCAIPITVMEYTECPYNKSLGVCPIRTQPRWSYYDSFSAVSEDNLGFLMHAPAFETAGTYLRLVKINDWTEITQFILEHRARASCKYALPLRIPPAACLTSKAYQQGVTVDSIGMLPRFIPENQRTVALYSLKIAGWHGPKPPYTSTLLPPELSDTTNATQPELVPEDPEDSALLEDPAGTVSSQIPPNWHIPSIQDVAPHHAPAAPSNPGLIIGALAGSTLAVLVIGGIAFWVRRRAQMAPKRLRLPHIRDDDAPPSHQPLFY

Columns and labels:
[1] = target: tetherin deletion mutant delGPI (1-161 aa of human tetherin) (human) (UniProt Q10589); assay: co-IP; 293T cells cotransfected with gD-flag and a tetherin mutant; lysates precipitated with the rabbit polyclonal antibody against tetherin, western blot with the flag antibody; Pierce Crosslink Immunoprecipitation Kit
[2] = target: HSV-2 glycoprotein D fused to flag tag (HSV-2) (UniProt Q69467); assay: co-IP; 293T cells cotransfected with gD-flag and a tetherin mutant; precleared lysates precipitated with anti-flag antibody (isotype control antibody beside it), western blot for tetherin; Pierce Crosslink Immunoprecipitation Kit

Substance | binding [1] | binding [2]
HSV-2 glycoprotein D fused to flag tag (from UniProt Q69467 26-393) | binds | 
tetherin deletion mutant delCC (human tetherin with the deletion of 100-154 aa) (from UniProt Q10589 1-161) |  | no binding
tetherin deletion mutant delGPI (1-161 aa of human tetherin) (from UniProt Q10589 1-161) (domain or fragment) |  | binds
